# PubChem BioAssay AID1224826 | NIAID | 2016
# Screen: 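Genes that change LPS-induced Tnf promoter activity in mouse macrophages when knocked down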 (primary screen)
# Cell system: RAW264.7 G9 macrophages from mouse bearing reporters for p65 (GFP) and the Tnf promoter (mCherry)
# Reagents: siRNA pool against mouse genes, 100 nM
# Time to read-out: 16 h of LPS stimulation, after 2 days of siRNA transfection
# Challenge: bacterial lipopolysaccharide (Salmonella minnesota R595), 10 ng/ml
# Detection: 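Nuclear mCherry signal of the Tnf promoter reporter measured by imaging after background removal, scaled to each plate median and turned into robust z-scores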
# Scale: Tnf reporter robust z-score: higher = stronger Tnf promoter reporter signal after LPS; Tnf reporter intensity: higher = stronger Tnf promoter reporter signal
# Call rule: 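Called active when robust z-score is at most -1.3, matching the median of the Tlr4 knock-down control, or over 3; control wells and wells with under 50 cells never active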
# Calls: active = Tnf reporter clearly lowered or raised; inactive = no clear change in Tnf reporter
# Shown is one part, drawn at random, of about 17,000 reagents tested. About 1,110 of them (6.6%) count as active. 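Active means lowered or raised reporter signal; replicate intensities are raw and not normalised per plate.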
gene,Tnf reporter robust z-score,fewer than 50 cells in well,"Tnf reporter intensity, replicate 1","Tnf reporter intensity, replicate 2",outcome
Chat,-0.63,enough cells in well,192,206,inactive
Lmcd1,-1.82,enough cells in well,93,40.2,active
Fhl2,0.53,enough cells in well,278,170,inactive
Fam135a,1.66,enough cells in well,284,118,inactive
Ppp4r4,1.27,enough cells in well,237,213,inactive
Arl15,1.96,enough cells in well,263,294,inactive
COL6A3,0.12,enough cells in well,231,142,inactive
Abcd2,0.98,enough cells in well,233,290,inactive
Ppm1g,0.56,enough cells in well,319,206,inactive
Itga7,0.2,enough cells in well,220,186,inactive
Mptx1,-0.93,enough cells in well,108,41.8,inactive
Tmed10,0.51,enough cells in well,181,142,inactive
Msh5,0.69,enough cells in well,317,259,inactive
Igf2bp1,0,enough cells in well,267,163,inactive
Igsf21,,fewer than 50 cells per well; well left out of calls,174,151,inactive
Lce3b,,fewer than 50 cells per well; well left out of calls,49.6,57.5,inactive
Cebpe,1.06,enough cells in well,320,296,inactive
4931432E15Rik,,fewer than 50 cells per well; well left out of calls,257,49.6,inactive
Atp5pb,-0.26,enough cells in well,157,149,inactive
Armc10,0,enough cells in well,272,63.6,inactive
Slfn5,,fewer than 50 cells per well; well left out of calls,0,80.7,inactive
Rbm12,,fewer than 50 cells per well; well left out of calls,41,49.6,inactive
Cilk1,0.94,enough cells in well,280,219,inactive
Tmem234,0.78,enough cells in well,279,100,inactive

Reagents listed above marked active (1):
gene,Tnf reporter robust z-score,fewer than 50 cells in well,"Tnf reporter intensity, replicate 1","Tnf reporter intensity, replicate 2",outcome
Lmcd1,-1.82,enough cells in well,93,40.2,active
